Measurements published in the supplement of paper PMC6411743.
± gives the standard deviation of the averaged measurements. Only a part is listed here, and it is no random draw.

Sequences of proteins named here, by UniProt entry; tags and fusion partners are left off. A change or cut given only in a name is not applied to a line headed by its entry.
UniProt P21333, whole entry: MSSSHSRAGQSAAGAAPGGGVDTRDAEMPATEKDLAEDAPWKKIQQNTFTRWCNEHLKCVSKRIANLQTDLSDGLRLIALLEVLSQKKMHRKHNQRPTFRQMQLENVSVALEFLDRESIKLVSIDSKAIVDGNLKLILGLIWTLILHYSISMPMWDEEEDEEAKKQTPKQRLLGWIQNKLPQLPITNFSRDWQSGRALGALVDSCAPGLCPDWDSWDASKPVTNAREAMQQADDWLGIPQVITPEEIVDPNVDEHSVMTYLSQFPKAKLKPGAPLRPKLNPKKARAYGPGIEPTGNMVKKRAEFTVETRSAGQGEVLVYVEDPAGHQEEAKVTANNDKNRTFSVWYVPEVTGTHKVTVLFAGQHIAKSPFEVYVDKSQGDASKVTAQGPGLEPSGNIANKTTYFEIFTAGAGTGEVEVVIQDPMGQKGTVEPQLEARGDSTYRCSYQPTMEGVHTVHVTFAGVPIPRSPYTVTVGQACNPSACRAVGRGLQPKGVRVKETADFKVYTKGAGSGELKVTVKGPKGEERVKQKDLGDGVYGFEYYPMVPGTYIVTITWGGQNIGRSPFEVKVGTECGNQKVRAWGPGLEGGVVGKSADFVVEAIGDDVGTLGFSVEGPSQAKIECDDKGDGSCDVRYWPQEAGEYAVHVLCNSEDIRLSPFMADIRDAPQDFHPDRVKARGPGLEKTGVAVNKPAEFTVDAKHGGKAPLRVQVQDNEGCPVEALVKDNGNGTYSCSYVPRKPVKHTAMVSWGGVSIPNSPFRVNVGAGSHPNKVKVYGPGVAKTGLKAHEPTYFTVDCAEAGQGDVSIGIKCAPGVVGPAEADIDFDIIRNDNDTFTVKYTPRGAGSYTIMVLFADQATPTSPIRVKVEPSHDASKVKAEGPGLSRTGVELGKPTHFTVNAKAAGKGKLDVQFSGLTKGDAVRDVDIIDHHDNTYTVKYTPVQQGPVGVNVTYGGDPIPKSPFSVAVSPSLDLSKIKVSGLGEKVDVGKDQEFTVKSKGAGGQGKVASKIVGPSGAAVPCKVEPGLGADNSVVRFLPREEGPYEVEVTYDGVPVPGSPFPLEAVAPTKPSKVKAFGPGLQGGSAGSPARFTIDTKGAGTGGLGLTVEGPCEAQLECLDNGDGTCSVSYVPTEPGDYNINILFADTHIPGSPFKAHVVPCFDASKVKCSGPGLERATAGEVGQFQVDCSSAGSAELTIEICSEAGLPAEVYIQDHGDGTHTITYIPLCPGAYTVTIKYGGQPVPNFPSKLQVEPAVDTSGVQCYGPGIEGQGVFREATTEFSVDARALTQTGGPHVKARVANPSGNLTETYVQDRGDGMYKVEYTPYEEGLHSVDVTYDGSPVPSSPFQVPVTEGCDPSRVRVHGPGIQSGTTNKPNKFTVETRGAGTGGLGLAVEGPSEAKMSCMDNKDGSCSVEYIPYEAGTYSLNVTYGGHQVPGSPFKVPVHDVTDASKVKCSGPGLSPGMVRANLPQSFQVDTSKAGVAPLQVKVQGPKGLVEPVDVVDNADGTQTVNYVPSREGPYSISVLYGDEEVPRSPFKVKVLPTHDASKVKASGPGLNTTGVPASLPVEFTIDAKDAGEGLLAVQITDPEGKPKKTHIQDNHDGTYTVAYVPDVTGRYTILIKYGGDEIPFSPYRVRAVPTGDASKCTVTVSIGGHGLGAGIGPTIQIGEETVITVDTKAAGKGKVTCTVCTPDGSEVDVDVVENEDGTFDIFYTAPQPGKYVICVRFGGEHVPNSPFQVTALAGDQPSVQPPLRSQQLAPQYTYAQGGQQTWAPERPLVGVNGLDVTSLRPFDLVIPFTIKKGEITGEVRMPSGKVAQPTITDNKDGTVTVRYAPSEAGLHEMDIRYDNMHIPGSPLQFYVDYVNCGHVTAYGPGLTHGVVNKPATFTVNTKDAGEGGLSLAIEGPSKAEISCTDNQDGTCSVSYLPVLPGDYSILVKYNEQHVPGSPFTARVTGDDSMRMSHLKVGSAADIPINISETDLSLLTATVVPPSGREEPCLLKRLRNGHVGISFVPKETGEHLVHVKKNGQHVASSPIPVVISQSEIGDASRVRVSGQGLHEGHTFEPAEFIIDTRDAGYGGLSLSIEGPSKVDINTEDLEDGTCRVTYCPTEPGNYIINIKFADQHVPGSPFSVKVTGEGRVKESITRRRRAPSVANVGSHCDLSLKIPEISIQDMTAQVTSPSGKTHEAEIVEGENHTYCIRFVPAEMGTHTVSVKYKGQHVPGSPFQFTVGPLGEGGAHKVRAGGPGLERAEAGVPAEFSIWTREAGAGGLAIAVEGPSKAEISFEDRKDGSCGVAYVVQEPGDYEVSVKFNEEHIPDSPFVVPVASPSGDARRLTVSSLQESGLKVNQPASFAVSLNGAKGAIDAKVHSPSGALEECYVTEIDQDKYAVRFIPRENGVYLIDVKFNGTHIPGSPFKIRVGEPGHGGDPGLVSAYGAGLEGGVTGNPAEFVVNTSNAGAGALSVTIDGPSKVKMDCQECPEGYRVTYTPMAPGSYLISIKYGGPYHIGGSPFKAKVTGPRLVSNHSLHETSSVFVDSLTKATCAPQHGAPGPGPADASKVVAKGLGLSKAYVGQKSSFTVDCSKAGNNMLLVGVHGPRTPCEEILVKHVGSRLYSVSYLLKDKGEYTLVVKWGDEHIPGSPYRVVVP
UniProt P27361, whole entry: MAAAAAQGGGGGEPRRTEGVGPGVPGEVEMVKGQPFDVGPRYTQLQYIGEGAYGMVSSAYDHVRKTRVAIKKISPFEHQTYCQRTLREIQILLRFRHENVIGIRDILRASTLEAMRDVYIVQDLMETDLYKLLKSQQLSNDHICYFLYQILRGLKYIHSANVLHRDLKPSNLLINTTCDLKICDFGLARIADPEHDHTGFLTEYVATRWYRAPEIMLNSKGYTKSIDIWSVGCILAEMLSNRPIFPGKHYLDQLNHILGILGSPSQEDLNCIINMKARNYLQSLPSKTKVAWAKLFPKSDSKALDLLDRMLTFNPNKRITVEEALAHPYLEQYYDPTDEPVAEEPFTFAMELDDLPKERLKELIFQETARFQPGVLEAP
UniProt P19338, whole entry: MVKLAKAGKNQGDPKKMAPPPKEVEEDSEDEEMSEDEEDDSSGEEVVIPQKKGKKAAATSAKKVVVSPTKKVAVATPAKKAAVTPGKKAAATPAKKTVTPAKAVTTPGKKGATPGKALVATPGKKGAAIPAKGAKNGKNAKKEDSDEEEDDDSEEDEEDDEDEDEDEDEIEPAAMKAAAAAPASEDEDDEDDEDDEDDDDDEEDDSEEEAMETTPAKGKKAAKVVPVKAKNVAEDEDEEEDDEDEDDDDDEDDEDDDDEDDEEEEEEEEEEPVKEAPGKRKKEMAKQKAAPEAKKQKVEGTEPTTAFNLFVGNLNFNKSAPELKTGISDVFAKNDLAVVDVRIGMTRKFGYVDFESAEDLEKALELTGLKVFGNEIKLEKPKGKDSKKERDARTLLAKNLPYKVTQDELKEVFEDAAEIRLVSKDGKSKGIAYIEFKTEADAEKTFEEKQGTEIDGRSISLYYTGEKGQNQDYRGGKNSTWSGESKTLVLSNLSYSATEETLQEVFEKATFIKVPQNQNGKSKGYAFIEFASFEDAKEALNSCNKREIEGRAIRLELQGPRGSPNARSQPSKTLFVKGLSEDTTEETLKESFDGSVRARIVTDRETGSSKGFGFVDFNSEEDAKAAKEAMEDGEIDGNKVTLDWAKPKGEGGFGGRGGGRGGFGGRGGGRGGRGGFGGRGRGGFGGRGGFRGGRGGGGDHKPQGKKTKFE
UniProt P33992: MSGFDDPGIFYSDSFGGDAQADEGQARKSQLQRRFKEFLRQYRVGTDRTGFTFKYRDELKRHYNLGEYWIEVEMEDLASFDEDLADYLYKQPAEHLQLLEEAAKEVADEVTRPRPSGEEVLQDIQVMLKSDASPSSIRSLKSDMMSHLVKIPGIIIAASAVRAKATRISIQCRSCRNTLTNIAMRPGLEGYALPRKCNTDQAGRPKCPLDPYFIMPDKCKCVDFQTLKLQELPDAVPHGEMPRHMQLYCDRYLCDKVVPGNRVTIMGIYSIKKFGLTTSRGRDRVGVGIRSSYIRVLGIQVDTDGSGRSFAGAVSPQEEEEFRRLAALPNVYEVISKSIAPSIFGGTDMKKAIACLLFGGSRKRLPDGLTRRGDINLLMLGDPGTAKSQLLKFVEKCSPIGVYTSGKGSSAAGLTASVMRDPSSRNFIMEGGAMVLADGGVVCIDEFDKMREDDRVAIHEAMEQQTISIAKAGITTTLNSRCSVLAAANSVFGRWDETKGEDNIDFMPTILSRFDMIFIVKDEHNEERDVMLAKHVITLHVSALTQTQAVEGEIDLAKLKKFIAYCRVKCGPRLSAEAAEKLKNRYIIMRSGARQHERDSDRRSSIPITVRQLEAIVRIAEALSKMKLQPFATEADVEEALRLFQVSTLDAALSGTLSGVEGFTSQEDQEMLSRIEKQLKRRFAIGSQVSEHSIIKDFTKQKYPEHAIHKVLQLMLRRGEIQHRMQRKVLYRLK
UniProt P19838: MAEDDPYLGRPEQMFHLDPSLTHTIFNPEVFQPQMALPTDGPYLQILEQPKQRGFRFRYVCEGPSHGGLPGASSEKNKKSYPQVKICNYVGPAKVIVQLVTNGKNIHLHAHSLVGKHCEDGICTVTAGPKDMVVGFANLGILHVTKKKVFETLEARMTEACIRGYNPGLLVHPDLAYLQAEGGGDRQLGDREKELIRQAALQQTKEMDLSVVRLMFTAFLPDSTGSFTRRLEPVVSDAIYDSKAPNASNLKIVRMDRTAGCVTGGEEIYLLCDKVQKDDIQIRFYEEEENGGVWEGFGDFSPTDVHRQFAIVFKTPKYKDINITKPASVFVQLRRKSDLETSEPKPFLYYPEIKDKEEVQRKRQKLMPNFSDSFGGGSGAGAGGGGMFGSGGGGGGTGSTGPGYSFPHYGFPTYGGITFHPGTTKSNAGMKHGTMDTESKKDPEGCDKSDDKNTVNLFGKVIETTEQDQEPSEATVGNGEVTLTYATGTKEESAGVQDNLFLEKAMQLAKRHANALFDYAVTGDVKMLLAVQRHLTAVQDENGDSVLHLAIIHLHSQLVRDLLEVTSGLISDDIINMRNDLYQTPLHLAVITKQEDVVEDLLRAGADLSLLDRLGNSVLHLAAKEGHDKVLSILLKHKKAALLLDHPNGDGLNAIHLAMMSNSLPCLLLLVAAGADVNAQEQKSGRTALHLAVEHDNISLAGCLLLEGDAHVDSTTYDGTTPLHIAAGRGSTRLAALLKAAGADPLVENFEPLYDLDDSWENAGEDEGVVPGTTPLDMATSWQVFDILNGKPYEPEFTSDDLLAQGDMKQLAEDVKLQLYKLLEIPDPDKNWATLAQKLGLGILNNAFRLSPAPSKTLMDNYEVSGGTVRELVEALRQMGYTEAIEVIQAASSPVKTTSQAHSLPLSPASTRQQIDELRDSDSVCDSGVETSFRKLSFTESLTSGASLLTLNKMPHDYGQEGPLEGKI
UniProt P26641, whole entry: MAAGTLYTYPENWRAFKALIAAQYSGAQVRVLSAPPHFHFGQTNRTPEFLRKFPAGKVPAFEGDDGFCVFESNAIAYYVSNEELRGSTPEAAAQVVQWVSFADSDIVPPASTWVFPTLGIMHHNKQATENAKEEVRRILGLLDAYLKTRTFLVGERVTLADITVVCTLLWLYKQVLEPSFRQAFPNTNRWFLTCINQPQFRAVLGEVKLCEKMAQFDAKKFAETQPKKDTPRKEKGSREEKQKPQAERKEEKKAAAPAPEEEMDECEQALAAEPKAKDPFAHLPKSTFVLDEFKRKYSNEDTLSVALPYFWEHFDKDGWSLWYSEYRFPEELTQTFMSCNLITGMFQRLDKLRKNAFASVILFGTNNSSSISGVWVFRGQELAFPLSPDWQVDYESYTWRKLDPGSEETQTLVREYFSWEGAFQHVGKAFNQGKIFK
UniProt P24723, whole entry, looked up: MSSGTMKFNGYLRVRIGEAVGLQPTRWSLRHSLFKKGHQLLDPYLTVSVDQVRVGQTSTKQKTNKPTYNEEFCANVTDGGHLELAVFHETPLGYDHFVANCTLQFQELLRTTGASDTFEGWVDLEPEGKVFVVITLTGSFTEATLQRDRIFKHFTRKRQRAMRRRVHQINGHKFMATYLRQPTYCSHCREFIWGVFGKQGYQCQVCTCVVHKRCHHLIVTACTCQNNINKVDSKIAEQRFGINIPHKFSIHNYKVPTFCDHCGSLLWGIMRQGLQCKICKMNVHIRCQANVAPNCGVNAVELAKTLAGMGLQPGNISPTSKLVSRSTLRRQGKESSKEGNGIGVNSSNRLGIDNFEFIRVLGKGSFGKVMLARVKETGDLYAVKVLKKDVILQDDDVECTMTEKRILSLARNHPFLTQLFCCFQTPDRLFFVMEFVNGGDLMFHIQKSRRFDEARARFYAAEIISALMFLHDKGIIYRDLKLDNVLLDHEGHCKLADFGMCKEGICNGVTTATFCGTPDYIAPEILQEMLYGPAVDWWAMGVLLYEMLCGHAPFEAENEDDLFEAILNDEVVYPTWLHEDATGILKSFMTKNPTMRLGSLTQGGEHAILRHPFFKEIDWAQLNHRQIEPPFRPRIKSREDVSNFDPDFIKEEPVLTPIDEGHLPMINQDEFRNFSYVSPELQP

Compound: Nc1ncnc2c1ncn2[C@@H]1O[C@H](COP(=O)(O)OP(=O)(O)OP(=O)(O)O)[C@@H](O)[C@H]1O [adenosine triphosphate]
Experiment: NP40-soluble protein abundance relative to vehicle (solubility fold change) (ratio); higher = more soluble protein in presence of ATP
How it was run: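 Data come from three independent experiments in which Dounce-homogenised Jurkat crude lysate was treated at eight concentrations from 0.1 to 10 mM. Treatment ran 10 min at room temperature and then 3 min at 37 °C, after which 0.8% NP40 and benzonase were added for 60 min at 4 °C before ultracentrifugation. The supernatant underwent TMT labelling and LC-MS/MS, and vsn-normalised intensities were expressed as fold change against the detergent-processed vehicle in each replicate.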

Target	NP40-soluble protein abundance (concentration: 1mM)	NP40-soluble protein abundance (concentration: 2mM)	NP40-soluble protein abundance (concentration: 4mM)	NP40-soluble protein abundance (concentration: 6mM)	NP40-soluble protein abundance (concentration: 8mM)	NP40-soluble protein abundance (concentration: 10mM)
UniProt P28066	0.995 ± 0.011	0.971 ± 0.023	0.943 ± 0.043	0.974 ± 0.061	0.95 ± 0.026	0.919 ± 0.047
UniProt P22830 and related entries	1.06 ± 0.051	1.01 ± 0.06	1.01 ± 0.066	0.968 ± 0.087	1.01 ± 0.064	0.993 ± 0.053
UniProt P32121 and related entries	1.01 ± 0.047	1.03 ± 0.053	1.02 ± 0.057	0.979 ± 0.13	0.991 ± 0.03	1.03 ± 0.011
TNFAIP3 (UniProt P21580)	0.936 ± 0.031	0.912 ± 0.046	0.977 ± 0.04	0.941 ± 0.002	0.968 ± 0.014	0.954 ± 0.026
MAN1A1 (UniProt P33908)	0.902 ± 0.032	0.915 ± 0.034	0.9054 ± 0.0054	0.909 ± 0.042	0.9103 ± 0.0073	0.911 ± 0.029
UniProt P32321 and related entries	0.903 ± 0.13	0.946 ± 0.097	0.905 ± 0.11	0.872 ± 0.18	0.861 ± 0.08	0.893 ± 0.071
UniProt P33981 and related entries	1.1 ± 0.043	1.08 ± 0.039	1.12 ± 0.019	1.11 ± 0.024	1.11 ± 0.036	1.08 ± 0.039
UniProt P21333-2|P21333 and related entries	0.971 ± 0.031	0.953 ± 0.015	0.907 ± 0.023	0.972 ± 0.021	0.909 ± 0.029	0.92 ± 0.045
UniProt P27361	1 ± 0.073	0.995 ± 0.068	0.972 ± 0.015	0.929 ± 0.094	0.979 ± 0.024	0.998 ± 0.031
NCL (UniProt P19338)	0.627 ± 0.062	0.599 ± 0.04	0.578 ± 0.033	0.711 ± 0.023	0.736 ± 0.028	0.826 ± 0.049
MCM5 (UniProt P33992)	0.971 ± 0.061	0.961 ± 0.043	0.953 ± 0.048	0.906 ± 0.028	0.979 ± 0.025	0.949 ± 0.033
UniProt P30622-1|P30622-2	0.996 ± 0.063	1 ± 0.044	0.989 ± 0.026	1.04 ± 0.04	0.964 ± 0.011	0.9851 ± 0.0058
UniProt P29372 and related entries	1.11 ± 0.073	1.12 ± 0.028	1.23 ± 0.04	1.29 ± 0.056	1.36 ± 0.093	1.44 ± 0.033
UniProt P19838 and related entries	1.02 ± 0.045	1.02 ± 0.039	0.966 ± 0.035	0.979 ± 0.034	0.987 ± 0.042	0.965 ± 0.035
EEF1G (UniProt P26641)	0.967 ± 0.021	0.915 ± 0.022	0.878 ± 0.0089	0.907 ± 0.025	0.917 ± 0.022	0.895 ± 0.043
UniProt P17544-2|P17544-4|P17544-6	1.07 ± 0.15	0.948 ± 0.046	0.916 ± 0.029	0.927 ± 0.055	0.855 ± 0.032	0.835 ± 0.052
UniProt P25098	1.01 ± 0.04	0.973 ± 0.032	0.956 ± 0.021	0.924 ± 0.075	0.97 ± 0.0097	0.951 ± 0.025
RAB4A (UniProt P20338)	0.976 ± 0.1	1.04 ± 0.12	1.05 ± 0.06	0.967 ± 0.067	1.02 ± 0.068	0.967 ± 0.077
PRKCH (UniProt P24723)	1.04 ± 0.056	1.03 ± 0.041	1 ± 0.044	0.99 ± 0.11	1.05 ± 0.04	1.05 ± 0.025
ACO1 (UniProt P21399)	1 ± 0.074	0.987 ± 0.07	0.986 ± 0.058	0.942 ± 0.088	0.982 ± 0.061	0.961 ± 0.054
UniProt P28482	0.958 ± 0.051	0.965 ± 0.057	0.93 ± 0.036	0.903 ± 0.085	0.942 ± 0.042	0.943 ± 0.026
UniProt P17010 and related entries	0.977 ± 0.082	0.959 ± 0.075	0.952 ± 0.16	0.978 ± 0.085	0.932 ± 0.26	1.08 ± 0.078
RRM1 (UniProt P23921)	1.03 ± 0.18	0.982 ± 0.13	0.965 ± 0.12	0.853 ± 0.16	1.01 ± 0.062	0.953 ± 0.065

Record cards (already shown):
MCM5 (UniProt P33992) as listed: NP40-soluble protein abundance (concentration: 1mM): 0.971 ± 0.061; NP40-soluble protein abundance (concentration: 2mM): 0.961 ± 0.043; NP40-soluble protein abundance (concentration: 4mM): 0.953 ± 0.048; NP40-soluble protein abundance (concentration: 6mM): 0.906 ± 0.028; NP40-soluble protein abundance (concentration: 8mM): 0.979 ± 0.025; NP40-soluble protein abundance (concentration: 10mM): 0.949 ± 0.033
MAN1A1 (UniProt P33908) as listed: NP40-soluble protein abundance (concentration: 1mM): 0.902 ± 0.032; NP40-soluble protein abundance (concentration: 2mM): 0.915 ± 0.034; NP40-soluble protein abundance (concentration: 4mM): 0.9054 ± 0.0054; NP40-soluble protein abundance (concentration: 6mM): 0.909 ± 0.042; NP40-soluble protein abundance (concentration: 8mM): 0.9103 ± 0.0073; NP40-soluble protein abundance (concentration: 10mM): 0.911 ± 0.029
